Experimental data from PubChem BioAssay AID652054 (National Center for Advancing Translational Sciences (NCATS), 2013).
The whole screen tested about 360,000 compounds, of which about 9,100 (2.5%) were called active. The inconclusive results got no clear call from the source; some entries with a clear call stand among them for comparison. Cut-off read from the data, not from the text of the source: active = max response below about -50%; inconclusive = no clear call, values can overlap the other calls; inactive = above that.

By UniProt entry, the sequences of proteins in these tests, tags left out.
UniProt P35462, whole entry, looked up: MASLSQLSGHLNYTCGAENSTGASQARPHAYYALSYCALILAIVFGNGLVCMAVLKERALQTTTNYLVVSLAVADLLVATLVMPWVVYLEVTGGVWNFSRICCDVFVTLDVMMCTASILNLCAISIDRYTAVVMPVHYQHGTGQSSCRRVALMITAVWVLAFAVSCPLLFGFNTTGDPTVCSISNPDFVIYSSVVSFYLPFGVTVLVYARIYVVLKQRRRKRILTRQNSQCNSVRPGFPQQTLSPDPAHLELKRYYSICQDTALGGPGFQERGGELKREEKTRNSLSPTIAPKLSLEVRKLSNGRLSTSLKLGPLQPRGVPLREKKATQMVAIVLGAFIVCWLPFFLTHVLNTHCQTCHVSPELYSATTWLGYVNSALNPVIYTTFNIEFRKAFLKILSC

biological target: D(3) dopamine receptor (Homo sapiens) (UniProt P35462); test: qHTS of D3 Dopamine Receptor Antagonist: qHTS; conditions: D3R cells, DiscoveRx beta-arrestin luminescence, antagonist mode; stronger effect = lower value
Summary of the method: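 Cells expressing the human receptor were seeded at 1500 cells/well, incubated overnight at 37 degrees C in 5% CO2, then exposed to library compounds with dopamine controls for 90 minutes at 37 degrees C before luminescent detection.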
% is set by controls: 0 for no effect and ±100 for the full control effect.

Row | SMILES | max response, negative = inhibition
1 | Cn1c(-c2ccc(CN3CCCCC3)o2)nc2ccccc21 | inconclusive: -47.1%
2 | CC[C@H](C)[C@@H](CO)NC(=O)[C@H]1O[C@@H](n2ccc(=O)[nH]c2=O)[C@H](O)[C@@H]1O | active: -105%
3 | O=C(CN1CCN(c2ccccc2)CC1)N1CCc2ccccc21 | inconclusive: -32.9%
4 | O=C1C=CC(O)(c2cc(=O)c3c(O)cc(O)cc3o2)C=C1 | active: -80.4%
5 | O=C(N/N=C/c1ccccn1)c1cc(-c2ccc(Br)cc2)nc2ccccc12 | active: -94.7%
6 | Clc1ccc(-n2c(SC/C=C/c3ccccc3)nnc2-c2cccnc2)cc1 | inconclusive: -35.4%
7 | COCCNC(=O)C1CCCN(C(=O)Cc2ccc(F)cc2)CC1 (centres undefined) | inactive: 28%
8 | COc1ccc(OCCN(C)CC(=O)Nc2c(C)cccc2C)cc1 | inconclusive: -35.8%
9 | C#CCn1cc(C=C2C(=O)c3ccccc3C2=O)c2ccccc21 | inconclusive: -32.3%
10 | O=C1Nc2ccccc2C1=Nc1ccc(-c2nnc3n2CCCCC3)cc1 | inconclusive: -32.3%
11 | O=c1c2ccccc2nnn1CSc1nc2cc(Cl)ccc2c(=O)n1Cc1ccco1 | inconclusive: -35.5%
12 | CC(C)C(NC(=S)NCc1ccccc1)C(=O)O (centres undefined) | inconclusive: -33.6%
13 | CC1CCN(CC(=O)c2c[nH]c3ccccc23)CC1 | inconclusive: -45.7%
14 | CC1CC(=O)N(c2ccc(NCCc3ccc(O)cc3)c([N+](=O)[O-])c2)C1=O (centres undefined) | inactive: -20.9%
15 | CCCOc1cccc(NC(=O)c2cc(C)oc2C)c1 | inactive: 14.2%
16 | O=C1CN(C(=O)CN2CCCC2)C(c2ccccc2)c2cc(Br)ccc2N1 (centres undefined) | inconclusive: -48.9%
17 | CC1(C)OC(=O)C2=C(C[C@@H](C3CCCCC3)O[C@@H]2c2ccc(Cl)cc2)O1 | inconclusive: -40.1%
18 | COc1ccc(C[C@H]2CN3C(=NC[C@@H]3Cc3ccc(O)cc3)N2CCNC(=O)c2ccc(C)c(Br)c2)cc1 | active: -98.4%
19 | COc1ccc(/C=N/NC(=O)CN2CCN(Cc3ccccc3)CC2)cc1Br | inconclusive: -34.2%
20 | OC(CN1CCCCC1)Cn1c2ccc(Cl)cc2c2cc(Cl)ccc21 (centres undefined) | inconclusive: -40.3%
21 | C[C@@H]1CCCCO[C@H](CN(C)Cc2ccc(C(=O)O)cc2)[C@@H](C)CN([C@H](C)CO)C(=O)c2cc(N(C)C)ccc2O1 | inconclusive: -40%
22 | CCOCCCN1C(=O)CN(C2CCCCCC2)C(=O)C1c1ccc(OC)cc1 (centres undefined) | inconclusive: -33.2%
23 | CC(=O)NC(c1ccc(C)cc1)c1cc([N+](=O)[O-])c2cccnc2c1O (centres undefined) | inconclusive: -37.1%
24 | COc1cc([C@@H]2CC=C(C(=O)O)[C@H](c3ccc(Cl)cc3)N2S(=O)(=O)c2ccc(C)cc2)cc(OC)c1OC | inconclusive: -30.4%
25 | Cc1ccc(/C=C2/C(=O)ON=C2c2ccccc2)o1 | inconclusive: -39.4%
26 | O=C(CCS(=O)(=O)c1ccccc1)Nc1nc2ccc(F)cc2s1 | inconclusive: -45.1%
27 | OCC1(CCc2ccccc2)CCCN(CCCC(F)(F)F)C1 (centres undefined) | inconclusive: -33.4%

Row | SMILES | max response, negative = inhibition
28 | COc1ccccc1CC(=O)N(CCC1=CCCCC1)c1c(N)n(Cc2ccccc2)c(=O)[nH]c1=O | active: -82.8%
29 | Cc1ccc(N2C(=O)NC3(CCCCC3)C2=O)cc1 | inconclusive: -31%
30 | CC1Oc2ccccc2OC1C(=O)Nc1ccccn1 (centres undefined) | inconclusive: -44.9%
31 | Cc1[nH]n(-c2ccccc2)c(=O)c1N=Nc1cccc([N+](=O)[O-])c1 | inconclusive: -32.2%
32 | Cc1cc(OCCCCNC(C)C)cc(C(C)C)c1 | active: -69%
33 | O=c1c2[nH]c3cccc(Cl)c3c2ncn1CCN1CCCCC1 | inconclusive: -46.9%
34 | COc1cccc(C2c3cc4c(cc3OC(NNC(N)=O)C2C)OCO4)c1O (centres undefined) | inactive: -5.21%
35 | O=C(NCc1ccc(Cl)cc1Cl)C1CC(=O)N(Cc2ccccc2)C1 (centres undefined) | inactive: -2.15%
36 | NC(=O)c1cc2cc(Br)ccc2o/c1=N/NC(=O)c1cccc(F)c1 | inconclusive: -34.5%
37 | Cc1ccc(CNC(=O)CCn2nc(-c3ccc(Cl)cc3)ccc2=O)cc1 | inactive: 31.1%
38 | O=C1c2ccccc2NC(c2cccc(F)c2)N1Cc1ccco1 (centres undefined) | active: -61%
39 | CC(C)C[C@H](NC(=O)c1nc[nH]c1C(=O)N[C@@H](CC(C)C)C(=O)OC(C)(C)C)C(=O)OCc1ccccc1 | inconclusive: -34.8%
41 | CN(CC(=O)Nc1ccc(Cl)cc1)C(=O)c1cccc(S(=O)(=O)N2CCN(Cc3ccccc3)CC2)c1 | inactive: -5%
42 | COc1cccc(OCCNc2cc(N3CCCCC3)ccc2[N+](=O)[O-])c1 | inactive: -12.4%
43 | CN1CCN(c2nc(-c3ccco3)cc(C(F)(F)F)n2)CC1 | active: -92%
44 | CCN(Cc1cc2cc(C)ccc2[nH]c1=O)C(=O)c1cccc(OC)c1 | inactive: 2.81%
45 | COc1ccc(/C=C/c2c(-c3ccc(OC)cc3)oc3ccc(-c4ccc(OC)cc4)cc23)cc1 | inactive: 23.1%
46 | COc1cc(CN2CCN(CCCc3ccccc3)CC2CCO)cc(OC)c1 (centres undefined) | inconclusive: -33.5%
47 | Cc1nc2ccc3nc(NC(=O)c4ccc(S(=O)(=O)N5CCOCC5)cc4)sc3c2s1 | inactive: 12.5%
48 | COc1ccccc1C1CCN(Cc2ccc(C)cc2)CC1 | inconclusive: -42.4%
49 | Cc1ccccc1OCCCCCn1ccnc1 | inconclusive: -34.3%
50 | Cc1ccc(CN(C)C(=O)c2cc(COc3cccc(C(F)(F)F)c3)on2)o1 | inconclusive: -30.1%
51 | CC(C)(C)NC(=S)N1CCC(C(=O)c2ccc(Cl)cc2)CC1 | inactive: 4.85%
52 | CC(C)C[C@H](NC(=O)c1[nH]cnc1C(=O)N[C@@H](C)C(=O)OC(C)(C)C)C(=O)OCc1ccccc1 | inconclusive: -45%
53 | COc1ccc(CN(C)C(=O)c2cccc(S(=O)(=O)N3CCN(c4ccccc4)CC3)c2)c(OC)c1OC | inactive: 12%
54 | CCOc1ccc(N=C2NC(=O)C(CC(=O)O)S2)cc1 (centres undefined) | inactive: 20.9%

Individual results from the list:
Value of COc1cccc(OCCNc2cc(N3CCCCC3)ccc2[N+](=O)[O-])c1 under max response, negative = inhibition: inactive: -12.4%
Value of CCN(Cc1cc2cc(C)ccc2[nH]c1=O)C(=O)c1cccc(OC)c1 under max response, negative = inhibition: inactive: 2.81%
Value of Cc1ccc(CN(C)C(=O)c2cc(COc3cccc(C(F)(F)F)c3)on2)o1 under max response, negative = inhibition: inconclusive: -30.1%
Value of CC(C)(C)NC(=S)N1CCC(C(=O)c2ccc(Cl)cc2)CC1 under max response, negative = inhibition: inactive: 4.85%
